Some of the results follow. Values are raw readings; no control value is given beside them.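 First-pass screen: polymyxin B was added at a level that permeabilizes the Salmonella outer membrane while sparing the inner membrane. DMSO wells, with and without polymyxin B, defined maximum growth. Because plates differed from one another, each plate's data were ranked separately and the compounds with the lowest OD600 were carried forward as hits.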
Test system: Salmonella enterica serovar Typhimurium SL1344
Test: bacterial growth OD600 after 18 h with compound and polymyxin B; higher = more bacterial growth (less inhibition)
Details: 50 µM, Mueller-Hinton broth

Row | SMILES | bacterial growth OD600 (polymyxin B 0.75 µg/mL) | bacterial growth OD600 (polymyxin B 1 µg/mL)
1 | CN(CCc1nc2cc(F)ccc2[nH]1)c1nc2nonc2nc1N1CCSCC1 | 0.933 | –
2 | O=C(NCc1ccccn1)C1CCN(C2CCN(Cc3cccc4nonc34)CC2)CC1 | – | 0.843
3 | COCC(=O)Nc1cc(C(=O)NCCc2ccco2)cc2ncn(CCc3ccccc3)c12 | 1 | –
4 | COc1cccc(CN2C[C@@H]3C[C@@H](c4ccc(CO)o4)N4CCC[C@@]34C2=O)c1 | – | 0.952
5 | CC(C)(C)C(=O)Nc1ccnn1C1CCN(C(=O)[C@@H]2C[C@H]2c2ccccc2)CC1 | – | 0.926
6 | CN(Cc1ccon1)c1ccc(C(=O)NCCC2CCCCN2C)cn1 (stereo not given) | – | 0.939
7 | CCC(=O)N(C)C(Cc1ccc(F)cc1F)C1CCN(C(=O)CCc2ccccc2Cl)CC1 (stereo not given) | 0.004 | –
8 | CC(=O)Nc1ccc(CNCc2cccnc2Oc2ccccc2C)cc1 | – | 0.916
9 | COc1ccccc1CN1C[C@@H]2C[C@@H](c3cc(F)ccc3F)N3CCC[C@@]23C1=O | 0.006 | –
10 | CCN1CCCC1CNC(=O)CCC1CCN(Cc2cc(CC(C)C)[nH]n2)CC1 (stereo not given) | 0.772 | –
11 | Cc1cnc(C(=O)N2CC[C@@H](N3CCN(c4ccccc4F)CC3)[C@H](O)C2)cn1 | – | 0.898
12 | CN(Cc1cccnc1)CC1CCN(CCc2ccc(Cl)cc2)CC1 | – | 0.768
13 | COc1cc(C(=O)NCc2ccccc2C)ccc1OC1CCN(C(C)=O)CC1 | – | 1.06
14 | Cc1ccc(C)c(CN2CCC(N3CCCC(C(=O)NC4CC4)C3)CC2)c1 (stereo not given) | 0.831 | –
15 | Cc1c(CN2CCc3[nH]nc(-c4cccc(F)c4)c3C2)cnn1C | 0.836 | –
16 | O=C(C1CCCCC1)N1CCC(C2(c3ccccn3)NC(=O)N(CCc3cccs3)C2=O)CC1 (stereo not given) | 0.836 | –
17 | COC(=O)CNC(=O)CCc1nnc(Cc2cccc(C(F)(F)F)c2)o1 | – | 0.978
18 | COC(=O)c1cccc(C(=O)N2CCCC(N3CCN(c4ccccc4OC)CC3)C2)c1 (stereo not given) | – | 0.837
19 | COc1ccccc1C1CCCN1C(=O)CCC1(Cc2ccc(C)cc2)CCC(=O)N1 (stereo not given) | 0.964 | –
20 | CO[C@H]1[C@H](NC(=O)CSC)c2ccccc2C12CCN(Cc1cnc(N(C)C)s1)CC2 | 0.82 | –
21 | CCOc1ccccc1CN1CCCC(CNC(=O)Cc2ccc(OC)cc2)C1 (stereo not given) | – | 1.02
22 | COC(c1ccc2c(c1)CN(C(=O)c1ocnc1C)CCO2)C1CCCCC1 (stereo not given) | 0.741 | –
23 | Cn1c(C2CCCO2)nc2cc(NC(=O)CC3CCCC3)cc(C(=O)N3CCCCCC3)c21 (stereo not given) | 0.87 | –
24 | CCOC(=O)N1CCN(C(=O)c2cc(NC(=O)Cc3ccccc3)cc3nc(COC)n(C)c23)CC1 | 0.929 | –
25 | O=C(CCn1cnc2ccccc2c1=O)N1CCCC(Nc2ccccc2)C1 (stereo not given) | – | 1.18
26 | COc1ccccc1CN(C)C(=O)c1cc(Cn2nc(C)cc2C)[nH]n1 | 0.852 | –
27 | Cc1ncc2c(c1CNC(=O)/C=C/c1cccs1)CCN(C(=O)COc1ccccc1)C2 | 0.869 | –
28 | O=C(c1cc(COc2ccc(F)cc2Cl)on1)N1CCN(C2CCCCC2)C(=O)C1 | – | 0.579
29 | COC(=O)CCC(=O)N1CCc2onc(-c3ccccc3F)c2C1 | 0.976 | –
30 | O=C1NCCN(Cc2ccccc2)C1CC(=O)N1CCN(c2ccccc2)CC1 (stereo not given) | – | 0.85

Part of the list above, in CSV form:
Row,SMILES,bacterial growth OD600 (polymyxin B 0.75 µg/mL),bacterial growth OD600 (polymyxin B 1 µg/mL)
9,COc1ccccc1CN1C[C@@H]2C[C@@H](c3cc(F)ccc3F)N3CCC[C@@]23C1=O,0.006,–
10,CCN1CCCC1CNC(=O)CCC1CCN(Cc2cc(CC(C)C)[nH]n2)CC1 (stereo not given),0.772,–
19,COc1ccccc1C1CCCN1C(=O)CCC1(Cc2ccc(C)cc2)CCC(=O)N1 (stereo not given),0.964,–
22,COC(c1ccc2c(c1)CN(C(=O)c1ocnc1C)CCO2)C1CCCCC1 (stereo not given),0.741,–
25,O=C(CCn1cnc2ccccc2c1=O)N1CCCC(Nc2ccccc2)C1 (stereo not given),–,1.18
30,O=C1NCCN(Cc2ccccc2)C1CC(=O)N1CCN(c2ccccc2)CC1 (stereo not given),–,0.85
